These results are taken from patent publication US20060165684A1 (published 2006).

Residue numbers refer to the chain shown, from its start. Results are given in words; binding and its absence hold for the method and conditions named. Some results given as binding are weak or reduced against the parent protein; the word gives no strength.

The target of the assay is T1, peptide 6 (TIRC7 derived peptide).
T1 sequence (peptide): DLPDASVNGWSSDE
Put plainly: ELISA.

B1: chimeric Neliximab (antibody, V domains shown)
VH: EVQLQQSGPELVKPGASVKMSCKASGYTFTTYVMHWVKQKPGQGLEWIGYINPYNDGTNYNEKFKGKATLTSDKSSSTAYMELSTLTSEDSAVYYCAEFITKTVGGSNWYLDVWGAGTTVTVSS
VL: QIVLTQSPAIMSASPGEKVTMTCSASSSISYIHWFQQKPGTSPKRWIYDTSKLPSGVPARFSGSGSGTSYSLTISSMEAEDAATYYCHQRSSYTWTFGGGTKLEIKR
notes: Murine VH and VL joined to human gamma 1 (pConGamma1f vector) and human kappa (pConKappa vector) constant regions, made in NSO or CHO cells; also called chimeric antibody of clone 17-1; chimerized #17
On to B1, for which the binding entry is on record as “binds”.

B2: murine Metiliximab (antibody, V domains shown)
VH: EVQLQQSGPELVKPGASVKMSCKASGYTFTSYVIHWVKQKPGQGLEWIGYINPYNYDTKYNEKFKGEATLTSDKSSNTAYMELSSLTSEDSAVYYCAGFFTRAVGGSYWYLDVWGAGTTVTVSS
VL: B1 VL with P54V, S76N, E80A, S92A, Y93S
notes: also called #9; Clone 9
On to B2, for which the binding entry is reported as “binds”.
